Results deposited as PubChem BioAssay AID1259405 (NCATS, 2018).
The deposit covers about 50,000 reagents; below is a part drawn at random. About 4,000 of them (8%) count as active. 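Mouse siRNA library applied to hamster cells; one well for each siRNA.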 Unmarked entries are inactive.

Screen: 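Knock-downs that lift recombinant protein yield in hamster ovary cells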 (primary screen)
Cell system: Chinese hamster CHO-K1 ovary cells with stable secreted eGFP expression
Knock-down reagent: single siRNA against mouse genes, 0.8 pmol siRNA per well (2 µl of 400 nM stock)
Time to read-out: 3 days
Measured: 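Per-well intracellular GFP measured by laser scanning cytometry, plus viability from ATP luminescence, each relative to plate median of non-targeting control wells, in %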
Direction: GFP, % of control: higher = more GFP per well, higher productivity; viability (ATP), % of control: higher = more viable cells (more ATP)
Hit rule: 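Called active when intracellular GFP, relative to negative control, is at or above 120%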

Asb7 (ankyrin repeat and SOCS box-containing 7) [SID363546636] gave GFP, % of control 96.6; viability (ATP), % of control 78.8.
For Asb7 (ankyrin repeat and SOCS box-containing 7) [SID363548392] the deposit lists GFP, % of control 73.5; viability (ATP), % of control 81.1.
Against Asb7 (ankyrin repeat and SOCS box-containing 7) [SID363560570], the values are GFP, % of control 53.3; viability (ATP), % of control 74.8.
Agmo (alkylglycerol monooxygenase) [SID363542808] gave GFP, % of control 151 (active); viability (ATP), % of control 113.
After knock-down of Agmo (alkylglycerol monooxygenase) [SID363546325], the record shows GFP, % of control 75.5; viability (ATP), % of control 80.
Against Agmo (alkylglycerol monooxygenase) [SID363548081], the values are GFP, % of control 70.1; viability (ATP), % of control 92.1.
For Kat2a (K(lysine) acetyltransferase 2A) [SID363570386], the values are GFP, % of control 46.4; viability (ATP), % of control 102.
After knock-down of Kat2a (K(lysine) acetyltransferase 2A) [SID363579186], the screen gave GFP, % of control 15.5; viability (ATP), % of control 36.7.
For Kat2a (K(lysine) acetyltransferase 2A) [SID363583058] the deposit lists GFP, % of control 78.7; viability (ATP), % of control 84.8.
Depletion of Vmn1r65 (vomeronasal 1 receptor 65) [SID363544743] came out at: GFP, % of control 64; viability (ATP), % of control 52.3.
Against Vmn1r65 (vomeronasal 1 receptor 65) [SID363551071] the deposit lists GFP, % of control 74.6; viability (ATP), % of control 70.5.
For Vmn1r65 (vomeronasal 1 receptor 65) [SID363557620], the entry reads GFP, % of control 97.5; viability (ATP), % of control 89.9.
For Tmem163 (transmembrane protein 163) [SID363543983], the values are GFP, % of control 98.4; viability (ATP), % of control 50.1.
Tmem163 (transmembrane protein 163) [SID363551719] gave GFP, % of control 41.3; viability (ATP), % of control 44.7.
For Tmem163 (transmembrane protein 163) [SID363559324] the deposit lists GFP, % of control 78.6; viability (ATP), % of control 87.3.
Depletion of Zfp180 (zinc finger protein 180) [SID363573837] gave: GFP, % of control 55.7; viability (ATP), % of control 78.2.
Zfp180 (zinc finger protein 180) [SID363581581] gave GFP, % of control 46.2; viability (ATP), % of control 74.3.
With knock-down of Zfp180 (zinc finger protein 180) [SID363584045], the screen gave GFP, % of control 67.5; viability (ATP), % of control 105.
With knock-down of Cbr3 (carbonyl reductase 3) [SID363575227], the record shows GFP, % of control 79.5; viability (ATP), % of control 92.3.
Against Cbr3 (carbonyl reductase 3) [SID363580859], the entry reads GFP, % of control 86.9; viability (ATP), % of control 85.7.
With knock-down of Cbr3 (carbonyl reductase 3) [SID363582971], the record shows GFP, % of control 58.9; viability (ATP), % of control 79.1.
Carmil3 (capping protein regulator and myosin 1 linker 3) [SID363546899] scored GFP, % of control 66.4; viability (ATP), % of control 57.1.
Carmil3 (capping protein regulator and myosin 1 linker 3) [SID363549711] scored GFP, % of control 79.3; viability (ATP), % of control 85.2.
For Carmil3 (capping protein regulator and myosin 1 linker 3) [SID363587765], the entry reads GFP, % of control 140 (active); viability (ATP), % of control 129.
For Mrpl33 (mitochondrial ribosomal protein L33) [SID363562147], the entry reads GFP, % of control 67; viability (ATP), % of control 64.3.
Mrpl33 (mitochondrial ribosomal protein L33) [SID363567285] gave GFP, % of control 88.3; viability (ATP), % of control 85.
Mrpl33 (mitochondrial ribosomal protein L33) [SID363584642] gave GFP, % of control 70.9; viability (ATP), % of control 60.8.
Knock-down of Rmdn2 (regulator of microtubule dynamics 2) [SID363546523] came out at: GFP, % of control 34.2; viability (ATP), % of control 40.2.
Rmdn2 (regulator of microtubule dynamics 2) [SID363548279] showed GFP, % of control 54.2; viability (ATP), % of control 86.4.
Depletion of Rmdn2 (regulator of microtubule dynamics 2) [SID363560457] gave: GFP, % of control 92.3; viability (ATP), % of control 91.6.
With knock-down of Ccdc63 (coiled-coil domain containing 63) [SID363542484] the results were GFP, % of control 93.5; viability (ATP), % of control 85.
For Ccdc63 (coiled-coil domain containing 63) [SID363551975], the values are GFP, % of control 31.4; viability (ATP), % of control 25.5.
After knock-down of Ccdc63 (coiled-coil domain containing 63) [SID363559580], the record shows GFP, % of control 124 (active); viability (ATP), % of control 110.
For Faxc (failed axon connections homolog) [SID363552431] the deposit lists GFP, % of control 69.3; viability (ATP), % of control 69.2.
Against Faxc (failed axon connections homolog) [SID363585567] the deposit lists GFP, % of control 28.1; viability (ATP), % of control 77.
Faxc (failed axon connections homolog) [SID363585918] scored GFP, % of control 95.7; viability (ATP), % of control 124.
Against Spta1 (spectrin alpha, erythrocytic 1) [SID363556430] the deposit lists GFP, % of control 95.5; viability (ATP), % of control 101.
For Spta1 (spectrin alpha, erythrocytic 1) [SID363586880], the values are GFP, % of control 104; viability (ATP), % of control 116.
Depletion of Spta1 (spectrin alpha, erythrocytic 1) [SID363588988] resulted in: GFP, % of control 89; viability (ATP), % of control 110.
Against Or4d2 (olfactory receptor family 4 subfamily D member 2) [SID363554099], the values are GFP, % of control 93.9; viability (ATP), % of control 53.6.
Depletion of Or4d2 (olfactory receptor family 4 subfamily D member 2) [SID363567546] resulted in: GFP, % of control 108; viability (ATP), % of control 55.8.
After knock-down of Or4d2 (olfactory receptor family 4 subfamily D member 2) [SID363584903], the record shows GFP, % of control 40.3; viability (ATP), % of control 115.
After knock-down of Lime1 (Lck interacting transmembrane adaptor 1) [SID363543752], the record shows GFP, % of control 97.7; viability (ATP), % of control 54.1.
Depletion of Lime1 (Lck interacting transmembrane adaptor 1) [SID363551488] resulted in: GFP, % of control 74.9; viability (ATP), % of control 62.4.
For Lime1 (Lck interacting transmembrane adaptor 1) [SID363559093], the entry reads GFP, % of control 62.4; viability (ATP), % of control 69.3.
Silencing of Cip2a [SID363550246] gave: GFP, % of control 64.6; viability (ATP), % of control 90.1.
Cip2a [SID363564755] gave GFP, % of control 72.1; viability (ATP), % of control 87.5.
With knock-down of Cip2a [SID363588300], the screen gave GFP, % of control 83.3; viability (ATP), % of control 122.
Depletion of Atg2b (autophagy related 2B) [SID363543707] came out at: GFP, % of control 103; viability (ATP), % of control 74.7.
Knock-down of Atg2b (autophagy related 2B) [SID363550029] came out at: GFP, % of control 98.3; viability (ATP), % of control 111.
Atg2b (autophagy related 2B) [SID363551443] showed GFP, % of control 135 (active); viability (ATP), % of control 75.9.
Depletion of Atg2b (autophagy related 2B) [SID363559048] gave: GFP, % of control 65.4; viability (ATP), % of control 71.5.
Atg2b (autophagy related 2B) [SID363564538] scored GFP, % of control 71.2; viability (ATP), % of control 62.1.
Atg2b (autophagy related 2B) [SID363588083] gave GFP, % of control 94.3; viability (ATP), % of control 112.

3 consecutive reagents from above, quoted:
Spta1 (spectrin alpha, erythrocytic 1) [SID363586880] → GFP, % of control = 104; viability (ATP), % of control = 116
Spta1 (spectrin alpha, erythrocytic 1) [SID363588988] → GFP, % of control = 89; viability (ATP), % of control = 110
Or4d2 (olfactory receptor family 4 subfamily D member 2) [SID363554099] → GFP, % of control = 93.9; viability (ATP), % of control = 53.6
